Reference: PubChem BioAssay AID588590 (National Center for Advancing Translational Sciences (NCATS), 2011)
Where “and” joins values, the source holds several entries; their conditions need not be identical. Equal values may be shown once. Hit rate of the full screen: of about 390,000 compounds, about 4,000 (1%) were called active. This list was built around the results that the source calls inconclusive (neither active nor inactive); the mix of calls is not that of the screen. Calls come from the whole dose curve; as a rule, active = well fitted inhibition curve with a large enough effect; inconclusive = small, poorly fitted or top-dose-only effect, or another doubt; inactive = no such curve, though single readings can be large or run the other way. Potencies of inconclusive entries are doubtful fits and often do not repeat.

By UniProt entry, the sequences of proteins in these tests, tags left out. Where a name states a change or a piece, a line headed by the entry shows the natural chain unless it says otherwise.
UniProt Q9UNA4: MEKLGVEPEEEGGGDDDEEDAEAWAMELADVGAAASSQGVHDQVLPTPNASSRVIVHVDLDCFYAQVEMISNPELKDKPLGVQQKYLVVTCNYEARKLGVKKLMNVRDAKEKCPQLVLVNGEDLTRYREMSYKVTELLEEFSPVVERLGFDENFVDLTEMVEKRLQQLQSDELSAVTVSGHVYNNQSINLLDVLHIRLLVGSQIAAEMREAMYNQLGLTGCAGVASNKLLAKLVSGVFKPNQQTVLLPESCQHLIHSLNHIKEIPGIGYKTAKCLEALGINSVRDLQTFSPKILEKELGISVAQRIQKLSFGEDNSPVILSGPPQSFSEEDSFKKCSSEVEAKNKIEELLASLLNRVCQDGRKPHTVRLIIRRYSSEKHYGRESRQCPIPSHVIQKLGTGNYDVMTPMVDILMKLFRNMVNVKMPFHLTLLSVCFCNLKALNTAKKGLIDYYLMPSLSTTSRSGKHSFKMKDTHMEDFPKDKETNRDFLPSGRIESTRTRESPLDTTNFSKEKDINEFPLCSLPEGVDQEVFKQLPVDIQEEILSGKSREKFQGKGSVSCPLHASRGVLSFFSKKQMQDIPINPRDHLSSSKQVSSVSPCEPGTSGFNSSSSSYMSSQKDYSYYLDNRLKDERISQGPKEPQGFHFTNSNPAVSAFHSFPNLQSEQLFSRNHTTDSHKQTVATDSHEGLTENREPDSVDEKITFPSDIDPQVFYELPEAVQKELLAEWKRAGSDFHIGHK

molecular target: DNA polymerase iota (Homo sapiens) (UniProt Q9UNA4); test: qHTS for Inhibitors of Polymerase Iota; conditions: Pol iota fluorescent replication assay, 10 min; series mostly up to 115 µM
Text: DNA polymerases, such as Pol iota, are specifically involved in DNA repair. Pol iota specifically plays an important role in translesion synthesis, where the normal high-fidelity DNA polymerases cannot proceed and DNA synthesis stalls. […] Thus, while pol eta's (and most likely iota's) normal function is to protect humans against the deleterious consequences of DNA damage, under certain conditions they can have deleterious effects on human health. As a consequence, we propose to utilize a high throughput replication assay to identify small molecule inhibitors of pol iota.
In a collaboration between the National Institute of Child Health & Human Development (NICHD) and NIH Chemical Genomics Center, a high-throughput, fluorescent screen was developed to screen the NIH Molecular Libraries Small Molecule Repository (MLSMR). This screen is used to identify inhibitors of pol iota.
NIH Chemical Genomics Center [NCGC]
NIH Molecular Libraries Probe Centers Network [MLPCN]
Assay Submitter (PI): Roger Woodgate, NICHD)
Three microliters of reagents (buffer in column 3 and 4 as negative control and 10 nM Pol iota in columns 1, 2, and 5-48) will be dispensed into 1,536-well black solid-bottomed plate. Compounds (23 nL) will be transferred via Kalypsys pin tool equipped with 1536-pin array. The plates will then be incubated for 15 min at room temperature, and 1 µL substrate (50 nM final concentration) will be added to start the reaction and kinetically read twice at 0 min and 10 min on the Viewlux reader.
Potency is the fitted concentration of half-maximal effect.

Row | SMILES | Potency
1 | C=CCN1C(=O)/C(=C\c2ccc(N3CCOCC3)o2)C(=O)NC1=S | inconclusive: 44.7 µM [inhibitor, partial curve]
2 | CC(=O)OCC1=C(C(=O)[O-])N2C(=O)[C@@H](NC(=O)CCC[C@@H](N)C(=O)[O-])[C@H]2SC1.[Zn+2] | inconclusive: 44.7 µM [inhibitor, partial curve, poor fit]
3 | CN1C(=O)/C(=C\N2CCc3ccccc32)C(=O)NC1=S | inconclusive: 39.8 µM [inhibitor, full curve, poor fit]
4 | C=CCNC(=O)c1c(N)n(Cc2ccco2)c2nc3ccccc3nc12 | inconclusive: 39.8 µM [inhibitor, full curve]
5 | CN1C(=O)CCS(=O)(=O)C1c1ccc(Cl)cc1 (configuration not stated) | inconclusive: 0.282 µM [inhibitor, full curve, poor fit]
6 | CC(C)=CCN1CC[C@@]2(C)c3cc(O)ccc3CC1C2C (some centres not stated) | inconclusive: 89.1 µM [inhibitor, single point]
7 | CC1CCN(C(=O)COC(=O)c2cn(C)c3ccccc23)CC1 | inactive
8 | C/C(=N\NC(=S)Nc1ccccc1)c1c(O)n(C)c(=O)n(C)c1=O | inactive
9 | C=C1C[C@]2(O)[C@@]3(C)CCC(=O)C(C)(C)C3=C(O)C(=O)[C@@]2(C)[C@@H]2C(=O)O[C@@](C)(C(=O)OC)C(=O)[C@@]12C | inconclusive: 79.4 µM [inhibitor, partial curve, poor fit]
10 | [O-]C1=N/[N+](=C/c2ccc(Cl)cc2)CC1 | inconclusive: 22.4 µM [inhibitor, single point]
11 | Cc1cc(/C=C2\C(=O)NC(=O)N(c3ccc(Cl)cc3)C2=O)c(C)n1-c1sc2c(c1C#N)CCCC2 | active: 10 µM
12 | c1ccc(-c2ccc3c(n2)CCCO3)cc1 | inconclusive: 89.1 µM [inhibitor, single point]
13 | O=C1C=CC(=O)C=C1 | inconclusive: 17.8 µM [inhibitor, partial curve] and inconclusive: 79.4 µM [inhibitor, single point]
14 | CN(C)c1ccc(/C=C/C=C2/C(=O)NC(=O)N(c3ccccc3)C2=O)cc1 | inconclusive: 7.08 µM [inhibitor, partial curve, poor fit]
15 | C#CCOc1ccc(OC)cc1C(c1c(C)[nH][nH]c1=O)c1c(C)[nH][nH]c1=O | inconclusive: 35.5 µM [inhibitor, single point]
16 | CCN(CC)C(=O)c1ccc2c(c1)C1C=CCC1C(C(=O)O)N2 (configuration not stated) | active: 12.6 µM
17 | O=C1NC(=O)N(Cc2ccco2)C(=O)/C1=C/c1cccn1CCOc1ccccc1Cl | active: 11.2 µM
18 | Cc1cccc(N(C)S(=O)(=O)c2cc(-c3cnc(C4CC4)o3)ccc2C)c1 | inconclusive: 79.4 µM [inhibitor, partial curve, poor fit]
19 | Cn1cccc1C(=O)OCC(=O)NCc1cccs1 | inactive
20 | CN1CCN(S(=O)(=O)c2cccc(C(=O)N3CCN(c4ccccc4F)CC3)c2)CC1 | inconclusive: 50.1 µM [inhibitor, single point]
21 | CCOc1ccc(N2C(=O)NC(=O)/C(=C\c3cc(OC)c(OC)cc3[N+](=O)[O-])C2=O)cc1 | inconclusive: 28.2 µM [inhibitor, partial curve]

Row | SMILES | Potency
22 | Cc1cccc(-n2c(O)c(/C=N/Nc3nc4c(c(=O)n(C)c(=O)n4C)n3C)c(=O)[nH]c2=S)c1 | inactive
23 | O=C(O)c1cc[c]([Sb](=[O])([OH])[OH])cc1[N+](=O)[O-] | active: 1 µM
24 | COc1ccc(CCNCc2ccccc2)cc1 | inactive
25 | C=CCn1c(=O)c(C=Nc2cccc([N+](=O)[O-])c2)c(O)n(CCCC)c1=O | inconclusive: 35.5 µM [inhibitor, single point]
26 | C[C@@H]1O[C@@H](O[C@@H]2C=C3CC[C@@H]4C(CC[C@]5(C)[C@@H](c6ccc(=O)oc6)CC[C@]45O)[C@@]3(C)CC2)[C@H](O)[C@H](O)[C@H]1O (some centres not stated) | inconclusive: 12.6 µM [inhibitor, partial curve, poor fit]
27 | Cc1nn(-c2ccccc2)c2c1P(=O)(O)/C(=C1\N(C)c3ccccc3C1(C)C)C=N2 | inconclusive: 28.2 µM [inhibitor, partial curve, poor fit]
28 | COc1ccc(C(c2ccc(OC)cc2)C(Cl)(Cl)Cl)cc1 | inconclusive: 89.1 µM [inhibitor, single point]
29 | CCOC(=O)N(c1ccccc1)P1(=S)OCCO1 | inconclusive: 20 µM [inhibitor, single point]
30 | O=C(Cc1ccccc1)Oc1ccccc1N1C(=O)CCC1=O | inactive
31 | COc1ccc(/C=N/N=C(/N)N[N+](=O)[O-])c(OC)c1 | inactive
32 | CN1[C@@H](CC(=O)c2ccccc2)CCC[C@H]1C[C@H](O)c1ccccc1 | inconclusive: 22.4 µM [inhibitor, single point]
33 | CCc1ccc(N2C(=O)NC(=O)/C(=C/c3cccn3CCOc3ccc(C(C)CC)cc3)C2=O)cc1 (configuration not stated) | inconclusive: 44.7 µM [inhibitor, partial curve, poor fit]
34 | CCOC(=O)c1c(N)n(CCN2CCCCC2)c2nc3ccccc3nc12 | inconclusive: 39.8 µM [inhibitor, partial curve, poor fit]
35 | CN(C)C(CNC(=O)Cc1ccc(Br)cc1)c1ccccc1 (configuration not stated) | inactive
36 | CCN(CC)C(=O)c1ccc(NC(=O)c2cccc(C(F)(F)F)c2)cc1 | inactive
37 | CCOc1cc(C=O)ccc1O | inactive
38 | Cc1ccccc1N1C(=O)NC(=O)/C(=C\c2cc(Br)c(N3CCOCC3)o2)C1=O | inconclusive: 31.6 µM [inhibitor, single point]
39 | CC(=O)c1c(O)c(C)c(O)c(Cc2c(O)c3c(c(C(=O)/C=C/c4ccccc4)c2O)OC(C)(C)C=C3)c1O | active: 50.1 µM
40 | Cc1cccc(N2C(=O)NC(=O)/C(=C/c3ccc(N4CCOCC4)cc3)C2=O)c1 | inactive
41 | C=CCC1(CC)C(=O)NC(=S)NC1=O | inactive
42 | O=c1[nH]c(=S)[nH]c(O)c1N=Nc1ccc(S(=O)(=O)N2CCOCC2)cc1 | inconclusive: 31.6 µM [inhibitor, partial curve]

Grouped by structure: those above containing fluorine.
Row | SMILES | Potency
20 | CN1CCN(S(=O)(=O)c2cccc(C(=O)N3CCN(c4ccccc4F)CC3)c2)CC1 | inconclusive: 50.1 µM [inhibitor, single point]
36 | CCN(CC)C(=O)c1ccc(NC(=O)c2cccc(C(F)(F)F)c2)cc1 | inactive
